Like-named read-outs stand apart in the source and are kept apart here.
Assays:
[1] = heart only model, after 5 µM terfenadine, mean ± SD
[2] = heart:liver model, after 5 µM terfenadine, 24 hours, mean ± SD

fexofenadine concentration in media [1]: 0.124 µM
fexofenadine concentration in media [2]: 3.8 µM
Structure (SMILES): CC(C)(C(=O)O)c1ccc(C(O)CCCN2CCC(C(O)(c3ccccc3)c3ccccc3)CC2)cc1 (centres unmarked) [fexofenadine]

From PMC6610665, “On the potential of in vitro organ-chip models to define temporal pharmacokinetic-pharmacodynamic relationships” (Scientific Reports, 2019)
